Measurements reported in PubChem BioAssay AID1259254 (NCATS, 2017).
Test: 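Genome-wide screen for genes that prevent DNA re-replication in cancer cells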 (primary screen). System: human HCT116 colorectal cancer cells. Reagents: single siRNA against human genes. Timing: 3 days. Measurement: 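Imaged Hoechst DNA stain sorts each cell into a cycle phase by DNA amount; per plate, G2 fraction set to 0% for non-targeting and 100% for GMNN siRNA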. Scale: G2 robust z-score: higher = more G2 cells, more excess DNA replication. Rule for the call: 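Active siRNAs have a G2 robust z of 5 or more median absolute deviations over the median, which in these data means about 38% or higher of GMNN control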.
Here is an unselected part of about 59,000 reagents tested. In the full data, about 1,550 (2.6%) are marked active. 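G2 share is only a proxy for re-replication; each gene was hit by three separate siRNAs, and active genes were retested.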 The numbers tell different reagents against one gene apart. Further read-outs or replicates are left out here. The record does not give: the amount of reagent.

gene | siRNA no. | G2 robust z-score | Call
STX4 (syntaxin 4) | 1 | -0.117 | inactive
STX4 (syntaxin 4) | 2 | -0.99 | inactive
STX4 (syntaxin 4) | 3 | -0.333 | inactive
OTOA (otoancorin) | 1 | 2.46 | inactive
OTOA (otoancorin) | 2 | -0.25 | inactive
OTOA (otoancorin) | 3 | -0.618 | inactive
PKP3 (plakophilin 3) | 1 | -0.896 | inactive
PKP3 (plakophilin 3) | 2 | 2.91 | inactive
PKP3 (plakophilin 3) | 3 | -1.16 | inactive
CDCA7L (cell division cycle associated 7 like) | 1 | 0.7 | inactive
CDCA7L (cell division cycle associated 7 like) | 2 | -0.885 | inactive
CDCA7L (cell division cycle associated 7 like) | 3 | -0.261 | inactive
LRRFIP1 (LRR binding FLII interacting protein 1) | 1 | 0.988 | inactive
LRRFIP1 (LRR binding FLII interacting protein 1) | 2 | -0.835 | inactive
LRRFIP1 (LRR binding FLII interacting protein 1) | 3 | 0.634 | inactive
CRTC2 (CREB regulated transcription coactivator 2) | 1 | -0.219 | inactive
CRTC2 (CREB regulated transcription coactivator 2) | 2 | 3.63 | inactive
CRTC2 (CREB regulated transcription coactivator 2) | 3 | 0.461 | inactive
SEC14L5 (SEC14 like lipid binding 5) | 1 | 1.12 | inactive
SEC14L5 (SEC14 like lipid binding 5) | 2 | -0.35 | inactive
SEC14L5 (SEC14 like lipid binding 5) | 3 | -1.03 | inactive
SLC4A9 | 1 | -0.831 | inactive
SLC4A9 | 2 | 3.29 | inactive
SLC4A9 | 3 | 0.0981 | inactive
EPB42 (erythrocyte membrane protein band 4.2) | 1 | 0.525 | inactive
EPB42 (erythrocyte membrane protein band 4.2) | 2 | -0.135 | inactive
EPB42 (erythrocyte membrane protein band 4.2) | 3 | 3.89 | inactive
TARS2 (threonyl-tRNA synthetase 2, mitochondrial) | 1 | -1.03 | inactive
TARS2 (threonyl-tRNA synthetase 2, mitochondrial) | 2 | 0.918 | inactive
TARS2 (threonyl-tRNA synthetase 2, mitochondrial) | 3 | 0.711 | inactive
RRP7A (ribosomal RNA processing 7 homolog A) | 1 | 2.05 | inactive
RRP7A (ribosomal RNA processing 7 homolog A) | 2 | 5.21 | active
RRP7A (ribosomal RNA processing 7 homolog A) | 3 | 3.23 | inactive
JADE3 (jade family PHD finger 3) | 1 | 0.426 | inactive
JADE3 (jade family PHD finger 3) | 2 | -0.253 | inactive
JADE3 (jade family PHD finger 3) | 3 | -1.32 | inactive
GINS3 (GINS complex subunit 3) | 1 | -1.35 | inactive
GINS3 (GINS complex subunit 3) | 2 | 1.16 | inactive
GINS3 (GINS complex subunit 3) | 3 | -0.845 | inactive
FAM241A (family with sequence similarity 241 member A) | 1 | -0.182 | inactive
FAM241A (family with sequence similarity 241 member A) | 2 | 0.945 | inactive
FAM241A (family with sequence similarity 241 member A) | 3 | -0.466 | inactive

10 of these entries in another layout.
| gene | siRNA no. | G2 robust z-score | Call |
| --- | --- | --- | --- |
| TARS2 (threonyl-tRNA synthetase 2, mitochondrial) | 1 | -1.03 | inactive |
| TARS2 (threonyl-tRNA synthetase 2, mitochondrial) | 2 | 0.918 | inactive |
| TARS2 (threonyl-tRNA synthetase 2, mitochondrial) | 3 | 0.711 | inactive |
| RRP7A (ribosomal RNA processing 7 homolog A) | 1 | 2.05 | inactive |
| RRP7A (ribosomal RNA processing 7 homolog A) | 2 | 5.21 | active |
| RRP7A (ribosomal RNA processing 7 homolog A) | 3 | 3.23 | inactive |
| JADE3 (jade family PHD finger 3) | 1 | 0.426 | inactive |
| JADE3 (jade family PHD finger 3) | 2 | -0.253 | inactive |
| JADE3 (jade family PHD finger 3) | 3 | -1.32 | inactive |
| GINS3 (GINS complex subunit 3) | 1 | -1.35 | inactive |

More reagents follow.
gene | siRNA no. | G2 robust z-score | Call
TTBK1 (tau tubulin kinase 1) | 1 | -1.13 | inactive
TTBK1 (tau tubulin kinase 1) | 2 | 1.91 | inactive
TTBK1 (tau tubulin kinase 1) | 3 | -0.247 | inactive
SLC2A3 | 1 | -0.679 | inactive
SLC2A3 | 2 | 1.42 | inactive
SLC2A3 | 3 | -0.67 | inactive
COPZ2 (coat protein complex I subunit zeta 2) | 1 | -0.0584 | inactive
COPZ2 (coat protein complex I subunit zeta 2) | 2 | -1.25 | inactive
COPZ2 (coat protein complex I subunit zeta 2) | 3 | -0.889 | inactive
CYP4F12 (cytochrome P450 family 4 subfamily F member 12) | 1 | 1.39 | inactive
CYP4F12 (cytochrome P450 family 4 subfamily F member 12) | 2 | 2.96 | inactive
CYP4F12 (cytochrome P450 family 4 subfamily F member 12) | 3 | 0.634 | inactive
RUFY4 (RUN and FYVE domain containing 4) | 1 | 2.39 | inactive
RUFY4 (RUN and FYVE domain containing 4) | 2 | -0.199 | inactive
RUFY4 (RUN and FYVE domain containing 4) | 3 | -0.691 | inactive
LUZP1 (leucine zipper protein 1) | 1 | -0.387 | inactive
LUZP1 (leucine zipper protein 1) | 2 | -0.683 | inactive
LUZP1 (leucine zipper protein 1) | 3 | -0.883 | inactive
DEDD2 (death effector domain containing 2) | 1 | 0.234 | inactive
DEDD2 (death effector domain containing 2) | 2 | 2.08 | inactive
DEDD2 (death effector domain containing 2) | 3 | -0.447 | inactive
POLL (DNA polymerase lambda) | 1 | -1.36 | inactive
POLL (DNA polymerase lambda) | 2 | -0.22 | inactive
POLL (DNA polymerase lambda) | 3 | -0.0831 | inactive
PSMB4 (proteasome 20S subunit beta 4) | 1 | 0.672 | inactive
PSMB4 (proteasome 20S subunit beta 4) | 2 | 2.31 | inactive
PSMB4 (proteasome 20S subunit beta 4) | 3 | -0.163 | inactive
CCL7 (C-C motif chemokine ligand 7) | 1 | 2.64 | inactive
CCL7 (C-C motif chemokine ligand 7) | 2 | 1.73 | inactive
CCL7 (C-C motif chemokine ligand 7) | 3 | 0.892 | inactive
RSL24D1P11 (ribosomal L24 domain containing 1 pseudogene 11) | 1 | 3.22 | inactive
RSL24D1P11 (ribosomal L24 domain containing 1 pseudogene 11) | 2 | -0.024 | inactive
RSL24D1P11 (ribosomal L24 domain containing 1 pseudogene 11) | 3 | -0.279 | inactive
NFKB2 (nuclear factor kappa B subunit 2) | 1 | 1.26 | inactive
NFKB2 (nuclear factor kappa B subunit 2) | 2 | 2.99 | inactive
NFKB2 (nuclear factor kappa B subunit 2) | 3 | 10.7 | active
APOBEC2 (apolipoprotein B mRNA editing enzyme catalytic subunit 2) | 1 | 3.3 | inactive
APOBEC2 (apolipoprotein B mRNA editing enzyme catalytic subunit 2) | 2 | -1.32 | inactive
APOBEC2 (apolipoprotein B mRNA editing enzyme catalytic subunit 2) | 3 | -0.42 | inactive
BGN (biglycan) | 1 | -1.27 | inactive
BGN (biglycan) | 2 | 0.0738 | inactive
BGN (biglycan) | 3 | -0.426 | inactive
TPT1 (tumor protein, translationally-controlled 1) | 1 | 3 | inactive
TPT1 (tumor protein, translationally-controlled 1) | 2 | 0.341 | inactive
TPT1 (tumor protein, translationally-controlled 1) | 3 | 0.946 | inactive
